Experimental findings from ChEMBL document CHEMBL3046969, “Synthesis, structure, and biological assay of cinnamic amides as potential EGFR kinase inhibitors” (Med Chem Res, 2013) are described below.

Amino acid sequences for entries named in this document (tags omitted).
UniProt P00533, whole entry: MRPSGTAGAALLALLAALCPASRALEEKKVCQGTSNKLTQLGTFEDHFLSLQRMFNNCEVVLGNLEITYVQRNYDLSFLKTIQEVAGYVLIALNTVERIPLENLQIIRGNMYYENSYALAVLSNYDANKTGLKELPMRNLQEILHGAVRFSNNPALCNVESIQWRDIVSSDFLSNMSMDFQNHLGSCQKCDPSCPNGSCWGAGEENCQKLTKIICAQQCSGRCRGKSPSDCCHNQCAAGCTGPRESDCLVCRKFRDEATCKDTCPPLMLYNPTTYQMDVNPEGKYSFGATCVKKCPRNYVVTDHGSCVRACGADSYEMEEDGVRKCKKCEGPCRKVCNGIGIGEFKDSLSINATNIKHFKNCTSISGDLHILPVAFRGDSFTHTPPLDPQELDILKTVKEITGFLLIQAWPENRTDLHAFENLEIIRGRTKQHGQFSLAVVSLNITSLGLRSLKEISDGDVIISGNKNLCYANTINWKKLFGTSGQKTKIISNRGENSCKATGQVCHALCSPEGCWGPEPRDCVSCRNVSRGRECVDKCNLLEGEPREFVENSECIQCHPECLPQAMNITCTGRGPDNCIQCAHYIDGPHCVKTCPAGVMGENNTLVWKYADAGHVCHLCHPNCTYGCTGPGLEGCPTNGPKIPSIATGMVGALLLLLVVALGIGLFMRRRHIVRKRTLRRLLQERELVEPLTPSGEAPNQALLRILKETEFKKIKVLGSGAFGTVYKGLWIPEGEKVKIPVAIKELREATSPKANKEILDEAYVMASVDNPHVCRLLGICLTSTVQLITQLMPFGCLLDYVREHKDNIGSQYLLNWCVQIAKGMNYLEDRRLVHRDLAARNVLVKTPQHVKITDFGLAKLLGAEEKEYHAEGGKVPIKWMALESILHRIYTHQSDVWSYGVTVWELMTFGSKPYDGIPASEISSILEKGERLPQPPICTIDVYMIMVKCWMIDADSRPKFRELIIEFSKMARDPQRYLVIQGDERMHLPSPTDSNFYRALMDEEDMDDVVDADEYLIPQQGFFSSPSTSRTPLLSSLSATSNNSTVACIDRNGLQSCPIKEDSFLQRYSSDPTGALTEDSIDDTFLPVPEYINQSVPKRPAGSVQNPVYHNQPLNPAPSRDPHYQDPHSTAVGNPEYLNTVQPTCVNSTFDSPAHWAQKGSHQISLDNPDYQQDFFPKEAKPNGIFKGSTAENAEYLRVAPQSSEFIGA

In general, IC50 refers to the midpoint of a concentration-inhibition curve. A high value points to lower potency.

The target of experiment [1] is Epidermal growth factor receptor (Homo sapiens, UniProt P00533). Nature of the experiment: Inhibition of autophosphorylation of His6-tagged EGFR cytoplasmic domain (unknown origin) expressed in Sf9 cells by DELFIA time resolved fluorometry. It counts as cell-based.
The test system of the next experiment is MCF7. Nature of the experiment: cells. Particulars: Homo sapiens, MCF7, 48 h. It counts as functional, cell-based.

Each structure is given as a SMILES string.

On to `O=C(/C=C/c1ccccc1)Nc1ccccc1F` [N-(2-FLUOROPHENYL)CINNAMAMIDE], for which the results for the IC50 (in experiment [1]; with MCF7) were 7.37 µM and 2.38 µM, respectively.

Regarding `O=C(/C=C/c1ccccc1)Nc1ccccc1` [N-PHENYLCINNAMAMIDE], the IC50 in experiment [1] is 23.2 µM; with MCF7, 5.24 µM.

As to `COc1ccc(NC(=O)/C=C/c2ccccc2)cc1` [N-(4-METHOXYPHENYL)CINNAMAMIDE], the IC50 in experiment [1] turned out to be 9.05 µM; with MCF7 it was 2.34 µM.
